In this test the target is BAX fusion protein (Proteintech) (UniProt Q07812). The test is described as follows: pull-down; GST or BAX fusion protein on G-Sepharose beads for 2 h in binding buffer (1% Triton X-100, 50 mM Tris-HCl pH 7.4, 250 mM NaCl), then cell lysates for 2 h; bound proteins by immunoblot; only the target purified. Background: In western blotting, separated proteins are transferred to a membrane and probed.

By UniProt entry, the sequences of proteins in these tests, tags left out. Where a name states a change or a piece, a line headed by the entry shows the natural chain unless it says otherwise.
UniProt Q07812: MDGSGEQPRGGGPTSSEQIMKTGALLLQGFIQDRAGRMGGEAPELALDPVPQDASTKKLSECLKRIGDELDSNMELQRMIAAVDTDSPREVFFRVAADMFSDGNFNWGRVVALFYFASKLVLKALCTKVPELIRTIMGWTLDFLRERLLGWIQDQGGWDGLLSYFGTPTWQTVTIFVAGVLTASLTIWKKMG

This note sets out measurements from paper PMC4669745.

These are yes or no findings as the source states them, for the method shown. In cells and extracts the contact can be indirect. Binding calls can cover weak binding; strength is not graded here.

B1: DRAM1 (DNA damage-regulated autophagy modulator 1) (protein, UniProt Q8N682 1-238)
chain: MLCFLRGMAFVPFLLVTWSSAAFIISYVVAVLSGHVNPFLPYISDTGTTPPESGIFGFMINFSAFLGAATMYTRYKIVQKQNQTCYFSTPVFNLVSLVLGLVGCFGMGIVANFQELAVPVVHDGGALLAFVCGVVYTLLQSIISYKSCPQWNSLSTCHIRMVISAVSCAAVIPMIVCASLISITKLEWNPREKDYVYHVVSAICEWTVAFGFIFYFLTFIQDFQSVTLRISTEINGDI
Turning to B1, the binding entry is “binds”.
